PubChem BioAssay AID743454, Peter MacCallum Cancer Centre, 2014
Here is one part, drawn at random, of about 18,000 reagents. Of all reagents, 450 (2.5%) got an active call. 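Single biological run; no consistent viability z cut-off exists, so the class columns, not z-scores, define the calls.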

Assay: 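Genes whose loss kills vorinostat-resistant colon cancer cells under vorinostat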 (primary screen)
System: human HCT116-VR colon cancer cells, selected for vorinostat resistance
Reagents: siRNA pool against human genes, 40 nM siRNA pool
Duration: vorinostat for 24 h, read-out about 72 h after transfection
Conditions: vorinostat at 2.5 µM final
Read-out: 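Two measures, CellTiter-Fluor viability and luminescent caspase 3/7 activity, each as fold change against same-plate mock wells, mean of duplicates, then screen-wide robust z-score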
Scale: viability robust z-score: higher = more viable cells than screen typical; caspase robust z-score: higher = more caspase 3/7 activity than screen typical
Hit rule: 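a knock-down is a hit when classed RV1 or RV2 for lowered viability, or CA1 or CA2 for caspase activation; those lethal without drug were dropped; hits were retested singly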

For SLC6A3, the values are viability hit class no change; caspase hit class no change; viability robust z-score 0.7; caspase robust z-score -0.25; inactive.
Against CD1C, the entry reads viability hit class no change; caspase hit class no change; viability robust z-score 0.97; caspase robust z-score -0.91; inactive.
PSMA2 showed viability hit class no change; caspase hit class no change; viability robust z-score -3.31; caspase robust z-score 2.05; inactive.
Silencing of ADAM2 resulted in: viability hit class no change; caspase hit class no change; viability robust z-score 0.85; caspase robust z-score -0.15; inactive.
LHX1 showed viability hit class no change; caspase hit class no change; viability robust z-score 0.84; caspase robust z-score 1.39; inactive.
For CENPX, the entry reads viability hit class no change; caspase hit class no change; viability robust z-score -0.66; caspase robust z-score 0.18; inactive.
For TPST1 the deposit lists viability hit class no change; caspase hit class no change; viability robust z-score -0.37; caspase robust z-score -0.04; inactive.
Depletion of CST9L resulted in: viability hit class no change; caspase hit class no change; viability robust z-score -0.21; caspase robust z-score 0.73; inactive.
GPR146 scored viability hit class no change; caspase hit class no change; viability robust z-score 0.71; caspase robust z-score 1.19; inactive.
PPFIBP2 scored viability hit class no change; caspase hit class no change; viability robust z-score 0.1; caspase robust z-score 2.68; inactive.
TNNI3K gave viability hit class no change; caspase hit class no change; viability robust z-score 0.29; caspase robust z-score -0.58; inactive.
With knock-down of VASN, the record shows viability hit class no change; caspase hit class no change; viability robust z-score 0.3; caspase robust z-score -0.5; inactive.
For PHF6 the deposit lists viability hit class no change; caspase hit class no change; viability robust z-score 0.9; caspase robust z-score 0.17; inactive.
ZNF623 gave viability hit class no change; caspase hit class no change; viability robust z-score 0.76; caspase robust z-score -0.24; inactive.

A portion taken from the entries so far:
CD1C — viability hit class = no change; caspase hit class = no change; viability robust z-score = 0.97; caspase robust z-score = -0.91; Call = inactive
PSMA2 — viability hit class = no change; caspase hit class = no change; viability robust z-score = -3.31; caspase robust z-score = 2.05; Call = inactive
